PMC7250858
No constants are given. Whether binding was seen depends on the method and setting. In cells and extracts the contact can be indirect. Here binding means that the protein was enriched with, or labelled near, the bait; the list need not be complete.

Chains of the proteins cited; added tags and fusions are not shown. Residues count along the entry.
UniProt P78527, residues 3719-4015: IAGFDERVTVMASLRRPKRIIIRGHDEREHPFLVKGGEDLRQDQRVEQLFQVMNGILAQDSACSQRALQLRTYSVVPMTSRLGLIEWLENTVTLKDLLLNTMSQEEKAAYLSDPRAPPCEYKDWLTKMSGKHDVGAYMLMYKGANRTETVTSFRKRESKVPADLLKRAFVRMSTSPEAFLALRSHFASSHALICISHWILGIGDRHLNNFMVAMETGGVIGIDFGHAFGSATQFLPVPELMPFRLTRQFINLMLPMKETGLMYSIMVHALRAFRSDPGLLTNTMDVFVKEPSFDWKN
UniProt Q8IWV7: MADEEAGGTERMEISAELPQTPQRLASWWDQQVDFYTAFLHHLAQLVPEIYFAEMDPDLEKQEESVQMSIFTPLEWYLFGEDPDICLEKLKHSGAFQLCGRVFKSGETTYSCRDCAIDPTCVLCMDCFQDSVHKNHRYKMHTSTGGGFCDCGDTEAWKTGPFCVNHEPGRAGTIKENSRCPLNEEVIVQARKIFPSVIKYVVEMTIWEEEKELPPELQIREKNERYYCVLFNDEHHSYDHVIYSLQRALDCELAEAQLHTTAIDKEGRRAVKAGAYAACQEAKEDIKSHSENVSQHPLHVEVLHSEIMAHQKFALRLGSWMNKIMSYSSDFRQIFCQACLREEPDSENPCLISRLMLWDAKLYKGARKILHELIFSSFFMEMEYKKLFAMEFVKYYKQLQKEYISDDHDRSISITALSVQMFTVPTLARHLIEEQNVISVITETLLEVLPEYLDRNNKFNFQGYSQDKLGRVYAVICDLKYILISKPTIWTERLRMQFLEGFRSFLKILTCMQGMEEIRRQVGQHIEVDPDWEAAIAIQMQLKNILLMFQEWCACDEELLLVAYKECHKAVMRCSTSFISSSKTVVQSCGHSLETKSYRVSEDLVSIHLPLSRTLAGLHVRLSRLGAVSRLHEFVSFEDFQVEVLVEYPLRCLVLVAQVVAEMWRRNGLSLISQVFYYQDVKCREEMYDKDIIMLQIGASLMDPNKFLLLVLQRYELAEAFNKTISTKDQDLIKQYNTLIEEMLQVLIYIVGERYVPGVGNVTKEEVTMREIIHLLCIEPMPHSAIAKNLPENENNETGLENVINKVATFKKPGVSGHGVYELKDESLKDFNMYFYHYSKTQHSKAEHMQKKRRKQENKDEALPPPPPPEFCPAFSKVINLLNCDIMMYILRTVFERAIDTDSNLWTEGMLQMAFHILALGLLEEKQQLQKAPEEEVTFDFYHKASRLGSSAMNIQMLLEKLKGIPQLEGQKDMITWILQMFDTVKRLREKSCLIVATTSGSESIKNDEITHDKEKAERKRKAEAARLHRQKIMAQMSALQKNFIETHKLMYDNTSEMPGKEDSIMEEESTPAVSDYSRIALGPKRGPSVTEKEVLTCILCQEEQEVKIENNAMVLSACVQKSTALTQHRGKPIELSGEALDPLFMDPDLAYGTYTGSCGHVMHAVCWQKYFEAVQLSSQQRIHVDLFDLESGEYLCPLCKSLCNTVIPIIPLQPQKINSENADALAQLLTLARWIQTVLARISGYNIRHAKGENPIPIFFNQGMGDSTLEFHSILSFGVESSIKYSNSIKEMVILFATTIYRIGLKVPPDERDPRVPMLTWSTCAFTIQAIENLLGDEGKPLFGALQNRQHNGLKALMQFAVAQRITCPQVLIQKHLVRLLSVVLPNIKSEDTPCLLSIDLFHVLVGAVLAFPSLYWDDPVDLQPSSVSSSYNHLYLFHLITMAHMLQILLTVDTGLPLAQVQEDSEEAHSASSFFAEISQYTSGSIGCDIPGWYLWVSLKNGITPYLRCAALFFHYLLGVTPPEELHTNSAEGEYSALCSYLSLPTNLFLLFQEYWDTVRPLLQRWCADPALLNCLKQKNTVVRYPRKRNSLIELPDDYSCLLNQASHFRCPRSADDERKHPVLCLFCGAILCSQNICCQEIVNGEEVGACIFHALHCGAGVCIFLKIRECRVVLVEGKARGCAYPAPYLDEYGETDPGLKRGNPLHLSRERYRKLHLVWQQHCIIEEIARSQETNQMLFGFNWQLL
UniProt P19474: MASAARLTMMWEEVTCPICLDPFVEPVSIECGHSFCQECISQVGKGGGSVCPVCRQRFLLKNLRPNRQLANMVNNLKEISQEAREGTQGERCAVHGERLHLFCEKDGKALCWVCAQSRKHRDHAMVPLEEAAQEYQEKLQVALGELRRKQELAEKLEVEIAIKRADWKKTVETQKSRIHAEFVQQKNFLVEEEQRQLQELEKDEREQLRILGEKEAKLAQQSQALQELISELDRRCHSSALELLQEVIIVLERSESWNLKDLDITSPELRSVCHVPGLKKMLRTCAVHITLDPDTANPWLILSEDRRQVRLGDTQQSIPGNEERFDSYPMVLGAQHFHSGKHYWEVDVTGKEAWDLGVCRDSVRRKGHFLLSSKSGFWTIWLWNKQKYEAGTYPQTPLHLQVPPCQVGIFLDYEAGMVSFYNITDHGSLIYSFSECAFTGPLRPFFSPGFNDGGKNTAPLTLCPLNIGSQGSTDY

Biological target: Flag-DNA-PKcs kinase domain (3719aa to 4015aa) fragment (UniProt P78527)
Test: affinity purification with mass spectrometry; mass spectrometry of the immunoprecipitation product of the Flag-DNA-PKcs kinase domain (3719-4015) fragment

binding | Substance
binds | UBR1 (from UniProt Q8IWV7 1-1749) (enzyme)
binds | HUWE1 (HECT, UBA, and WWE domain containing E3 ubiquitin protein ligase 1), endogenous (from UniProt Q7Z6Z7 1-4374) (enzyme)
binds | TRIM21 (from UniProt P19474 1-475) (enzyme)
